Results taken from patent US20160310523A1, “USE OF OXYGEN-CONTAINING GAS SOURCE” (China Medical University, priority 2015, published 2016).

Experiment: Blood gas analysis of urethane-anesthetized rats receiving different gas sources
Assay type: in vivo

With `O=O` [100% O2] the pCO2 (45 minutes of gas exposure) was 48 mmHg, the pH (45 minutes of gas exposure) was 7.3 and the pO2 (45 minutes of gas exposure) was 361 mmHg. The pCO2 (90 minutes of gas exposure) was 52 mmHg, the pH (90 minutes of gas exposure) was 7.4 and the pO2 (90 minutes of gas exposure) was 442 mmHg.
